Out of some 340,000 compounds screened, about 4,500 (1.3%) were called active. Inconclusive means that the source gave no clear call. Such entries were picked first, then a sample of the others. Calls come from the whole dose curve; as a rule, active = well fitted inhibition curve with a large enough effect; inconclusive = small, poorly fitted or top-dose-only effect, or another doubt; inactive = no such curve, though single readings can be large or run the other way. Potencies of inconclusive entries are doubtful fits and often do not repeat.
Biological target: DNA polymerase beta (Homo sapiens) (UniProt P06746)
Test: qHTS Assay for Inhibitors of DNA Polymerase Beta
Details: Pol beta primer extension/strand displacement, fluorescence kinetic; activity change, negative = inhibition: at 114 µM (top of the series)
Excerpt: The base excision repair system in human cells is a target for therapeutic modulation of the response to irradiation treatment and DNA-damaging drugs. A key enzyme in this system is the bi-functional DNA polymerase known as DNA polymerase Beta (Pol Beta). The following is a homogeneous kinetic assay to study the primer extension and strand-displacement reaction catalyzed by pol beta.
A stepwise description of the 1536-well assay is shown in next Table. Three microliters of reagents (buffer in column 3 and 4 as negative control and 10 nM Pol beta in columns 1, 2, and 5-48) was dispensed into 1,536-well black solid-bottomed plate. Compounds (23 nL) were transferred via Kalypsys pin tool equipped with 1536-pin array (10 nL slotted pins, V&P Scientific, San Diego, CA). The plates were incubated for 15 min at room temperature, and 1 uL substrate (50 nM final concentration) were added to start the reaction and immediately read at 0 min read on Viewlux reader. The plate were further incubated for 10 min at room temperature, and then read on Viewlux again. Throughout the screen, reagent bottle and all liquid lines were chilled and made light-tight to minimize reagent degradation. All screening operations were performed on a fully integrated robotic system (Kalypsys, San Diego, CA) containing one RX-130 and two RX-90 anthropomorphic robotic arms (Staubli, Duncan, SC). Library plates were screened starting from the lowest and proceeding to the highest concentration, and a double-dipping step of the highest concentration was required to access higher concentrations of compounds. Vehicle-only plates, with DMSO being pin-transferred to the entire column 5-48 compound area, were inserted uniformly at the beginning and the end of each library in order to monitor for and record any shifts in the background, which can be affected by reagent dispensers or loss in enzyme activity overtime. Screening data were corrected, normalized, and concentration-effect relationships were derived by using publicly-available curve fitting algorithms developed in-house (http://ncgc.nih.gov/pub/openhts). A four parameter Hill equation was fitted to the concentration-response data by minimizing the residual error between the modeled and observed responses.
% is set by controls: 0 for no effect and ±100 for the full control effect; potency is the fitted concentration of half-maximal effect.

Question: With `O=C(N/N=C/c1cc(Br)cs1)c1c[nH]c2ccccc12` as the molecule, how does the Potency read?
Answer: Its Potency is inconclusive: 39.8 µM [inhibitor, single point].

Question: `CC(C)(C)NC(=O)CN(C(=O)c1snc(C(=O)NC2CCCCC2)c1N)c1ccccc1F` was tested. Which Potency did it give?
Answer: The Potency was inconclusive: 79.4 µM [inhibitor, partial curve].

Question: With `COc1cc(C(CC(=O)Nc2cccc(C(C)=O)c2)N2Cc3ccccc3C2=O)cc(OC)c1OC` (stereo not drawn) as the molecule, how does the “activity change, negative = inhibition” value read?
Answer: Its value is inactive: 9.44%.

Question: How did the Potency turn out when `CN1CCN(c2ccccc2NC(=O)COc2ccc(C3CCCCC3)cc2)CC1` was run?
Answer: The Potency was inconclusive: 5.01 µM [inhibitor, single point].

Question: With `Cc1ccc(S(=O)(=O)NCC(=O)N(CC(=O)NCC2CCCO2)Cc2ccco2)cc1` (stereo not drawn) as the molecule, how does the Potency read?
Answer: The Potency was active: 12.6 µM.

Question: How did the Potency turn out when `Cn1c(=O)cc(OCC(=O)NCCC2=CCCCC2)c2ccccc21` was run?
Answer: The Potency was inconclusive: 89.1 µM [inhibitor, single point].

Question: How did the “activity change, negative = inhibition” value turn out when `CCOC(=O)c1c(NC(=O)/C=C/c2ccc(C)cc2)sc(C(C)=O)c1C` was run?
Answer: The value was inactive: -0.771%.

Question: For `NC(=O)N=Nc1c2[nH]c3ccccc3nc-2c2ccccc12`, which “activity change, negative = inhibition” value is on record?
Answer: Its value is inactive: -51%.

Question: With `Cc1ccccc1-n1nc(CO)c(C(=O)NCC(c2ccccc2)c2ccccc2)n1` as the molecule, how does the “activity change, negative = inhibition” value read?
Answer: The value was inactive: 15.1%.

Question: With `O=C(N/N=C/c1cccnc1)c1ccc(O)cc1` as the molecule, how does the “activity change, negative = inhibition” value read?
Answer: Its value is inactive: 19.9%.

Question: How did the activity change, negative = inhibition turn out when `CCOc1ccccc1NC(=O)CSc1nnc(CNC(=O)c2cc(OC)c(OC)c(OC)c2)o1` was run?
Answer: Its activity change, negative = inhibition is inconclusive: -31.5% [inhibitor].

Question: `S=c1[nH]c2cc(Br)cnc2[nH]1` was tested. Which “activity change, negative = inhibition” value did it give?
Answer: The value was inactive: -8.06%.

Question: How did the Potency turn out when `NNC(=O)C1=NOC(CNc2ncc(C(F)(F)F)cc2Cl)C1` (stereo not drawn) was run?
Answer: The Potency was inconclusive: 89.1 µM [inhibitor, single point].

Question: Which “activity change, negative = inhibition” value does the source give for `COc1cc(OC)c(NC(=O)c2noc3c2CSc2ccccc2-3)cc1Cl` here?
Answer: The value was inactive: 2.33%.

Question: Which “activity change, negative = inhibition” value does the source give for `CC(=O)c1ccc(N2CCN(C(=O)CCc3nnc4n(C)c(=O)c5sccc5n34)CC2)cc1` here?
Answer: Its value is inactive: 5.68%.

Question: `Cc1ccc(C)c(NC(=O)CSc2nnc(-c3cc4occc4n3C)n2-c2ccccc2C)c1` was tested. Which “activity change, negative = inhibition” value did it give?
Answer: Its value is inactive: 17.8%.

Question: How did the Potency turn out when `Fc1ccc(-c2nnc(Cc3nnc(-c4ccc(F)cc4)o3)o2)cc1` was run?
Answer: The Potency was active: 39.8 µM.

Question: With `CCn1c2ccccc2c2cc(NC(=O)c3ccc(=O)oc3)ccc21` as the molecule, how does the Potency read?
Answer: Its Potency is inconclusive: 39.8 µM [inhibitor, partial curve].

Question: Which Potency does the source give for `CCCc1nc2oc3cc(OC)ccc3c(=O)c2c(=O)n1Cc1ccco1` here?
Answer: Its Potency is active: 44.7 µM.

Question: Which Potency does the source give for `O=C(O)/C=C\C(=O)Nc1ccc(N2CCN(c3ccc(F)cc3)CC2)cc1` here?
Answer: The Potency was inconclusive: 39.8 µM [inhibitor, single point].

Question: Which “activity change, negative = inhibition” value does the source give for `COc1ccc(OCC(=O)OCc2cc(=O)n3nc(C4CC4)sc3n2)cc1` here?
Answer: The value was inactive: 1.59%.

Question: For `CCCCOC(=O)c1ccc(NC(=O)c2cc(-c3cccs3)on2)cc1`, which “activity change, negative = inhibition” value is on record?
Answer: The value was inactive: 10.6%.

Question: With `O=C(NCc1ccco1)C(=O)NCC1OCCN1S(=O)(=O)c1ccccc1` (stereo not drawn) as the molecule, how does the Potency read?
Answer: Its Potency is inconclusive: 50.1 µM [inhibitor, partial curve].

Question: For `Cc1ccc(NC(=O)C(=O)NCC(c2ccc3c(c2)OCO3)N2CCOCC2)cc1C` (stereo not drawn), which “activity change, negative = inhibition” value is on record?
Answer: Its value is inactive: 14.9%.

Question: `COc1ccc(/C=C/C(=O)OCc2cc(=O)n3c(n2)sc2ccccc23)cc1` was tested. Which Potency did it give?
Answer: Its Potency is inconclusive: 25.1 µM [inhibitor, single point].

Question: Which “activity change, negative = inhibition” value does the source give for `CC(C)CC(=O)Nc1ccccc1OCc1cc(=O)n2ccccc2n1` here?
Answer: The value was inactive: 17%.

Question: Which Potency does the source give for `Cc1cc2nc(-c3ccc(SCc4ccccn4)nc3)[nH]c2cc1C` here?
Answer: Its Potency is inconclusive: 28.2 µM [inhibitor, full curve].

Question: For `COC(=O)c1cc(Cl)ccc1NC(=O)CSc1ncc(S(=O)(=O)c2ccc(Br)cc2)c(=O)[nH]1`, which Potency is on record?
Answer: Its Potency is active: 44.7 µM.

Question: With `CCCOc1ccc(-c2c(C(=O)N/N=C(\C)c3cccnc3)nnn2-c2nonc2N)cc1` as the molecule, how does the “activity change, negative = inhibition” value read?
Answer: Its value is inactive: 0.561%.

Question: For `CCOc1ccc(NC(=O)CCCc2nnc3n(C)c(=O)c4sccc4n23)cc1`, which Potency is on record?
Answer: Its Potency is inconclusive: 0.631 µM [inhibitor, full curve, poor fit].

Question: Which “activity change, negative = inhibition” value does the source give for `CCOC(=O)c1cc(-c2ccc(OC)cc2)n(CCC(=O)NC2CCCCC2)c1C` here?
Answer: Its value is inactive: -2.21%.

Question: With `COc1cc(OC)c(OC)cc1/C=C1\SC(N2CCCCC2)=NC1=O` as the molecule, how does the Potency read?
Answer: The Potency was inconclusive: 31.6 µM [inhibitor, single point].

Question: `CCC(CO)Nc1ccc(-c2nn(C)c(=O)c3ccccc23)cc1[N+](=O)[O-]` (stereo not drawn) was tested. Which Potency did it give?
Answer: The Potency was inconclusive: 2.24 µM [inhibitor, partial curve].

Question: With `CCC(=O)N1CCc2cc(Br)cc(S(=O)(=O)CCC(=O)N3CCN(c4cc(C)ccc4C)CC3)c21` as the molecule, how does the Potency read?
Answer: The Potency was inconclusive: 25.1 µM [inhibitor, full curve].

Question: For `Cc1ccc(Cl)cc1NC(=O)c1ccc(NC(=O)CCC(=O)O)cc1`, which Potency is on record?
Answer: The Potency was inconclusive: 28.2 µM [inhibitor, partial curve, poor fit].

Question: `CCN1/C(=C/c2ccc3cc(C)ccc3[n+]2CC)Sc2ccccc21` was tested. Which Potency did it give?
Answer: Its Potency is inconclusive: 8.91 µM [inhibitor, full curve].

Question: For `CC(C)COC(=O)N1C[C@H](O)C[C@H]1C(=O)Nc1ccc(Cl)cc1`, which Potency is on record?
Answer: The Potency was inconclusive: 0.126 µM [inhibitor, full curve, poor fit].

Question: How did the activity change, negative = inhibition turn out when `COc1ccc(CNC(=S)N2CCN(Cc3ccccc3)CC2)cc1` was run?
Answer: The activity change, negative = inhibition was inconclusive: -34.3% [inhibitor].

Question: Which activity change, negative = inhibition does the source give for `CCNC(=O)C1CCCN1S(=O)(=O)c1ccc2ccccc2c1` (stereo not drawn) here?
Answer: Its activity change, negative = inhibition is inconclusive: -30.1% [inhibitor].

Question: `Cc1nc2c3cc(F)ccc3n(CCN3CCCCC3)c2s1` was tested. Which Potency did it give?
Answer: The Potency was inconclusive: 39.8 µM [inhibitor, single point].

Question: For `CCN(CC)S(=O)(=O)c1ccc2c(c1)nc(CN(C)C(=O)Nc1ccc(C)c(F)c1)n2C`, which “activity change, negative = inhibition” value is on record?
Answer: Its value is inactive: 32.6%.

Question: For `O=C(CSc1ccc(F)cc1)Nc1ccc2c(c1)C(=O)NC2=O`, which “activity change, negative = inhibition” value is on record?
Answer: The value was inactive: 5.45%.

Question: With `COc1ccccc1C(=O)NNC(=O)c1cccc(O)c1` as the molecule, how does the Potency read?
Answer: The Potency was inconclusive: 89.1 µM [inhibitor, single point].

Question: For `Cn1cc(/C=C/c2cc[n+](C)cc2)c2cc(F)ccc21`, which Potency is on record?
Answer: Its Potency is inconclusive: 63.1 µM [inhibitor, single point].

Question: Which Potency does the source give for `O=C1NN(c2ccccc2)C(=O)/C1=C/c1ccc(Sc2cccc3ccccc23)o1` here?
Answer: Its Potency is active: 20 µM.

Question: For `O=C(O)c1ccc(-c2ccc(/C=c3/sc4nc5ccccc5n4c3=O)o2)cc1Cl`, which Potency is on record?
Answer: Its Potency is active: 3.98 µM.

Question: With `Cc1ccc(-c2csc(=Nc3ccccc3)n2Cc2ccc3c(c2)OCO3)cc1` as the molecule, how does the “activity change, negative = inhibition” value read?
Answer: The value was inactive: 8.61%.

Question: With `O=c1ccc2c(-c3ccccc3)c3ccc(O)cc3oc-2c1` as the molecule, how does the Potency read?
Answer: Its Potency is active: 7.94 µM.

From PubChem BioAssay AID485314 (National Center for Advancing Translational Sciences (NCATS), 2010)
